Data as given in PubChem BioAssay AID1224830 (NIAID, 2016)

Test: 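Host factors that control LPS-induced TNF expression in human macrophages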 (primary screen)
System: human THP-1 monocytic leukaemia cells, TNF dual-luciferase reporter clone, PMA-differentiated to macrophage-like cells
Reagent: siRNA pool against human genes, 50 nM
Time to read-out: LPS for 4 h, given about 3 days after siRNA transfection
Conditions: bacterial LPS (TLR4 ligand), 10 ng/ml
Measurement: 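Ratio of firefly to renilla light, scaled to the plate median and expressed as a robust z-score per replicate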
Reading the numbers: TNF reporter robust z-score: higher = stronger TNF reporter response to LPS
Hit rule: 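a well is active when its z-score exceeds 2.8 or falls below -1.5; control wells carry no call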
The deposit covers about 18,000 reagents; shown is a part drawn at random. In the full data, about 2,900 (16%) got an active call. 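Calls are made per well; low scores hint the gene aids the LPS response, high scores that it dampens it.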 Repeated entries: four replicate wells of each siRNA pool. Reagent sequences are not shown.

Target gene | PubChem SID | TNF reporter robust z-score | call
PDE3B (GeneID 5140) | SID315450473 | -0.92 | inactive
PDE3B (GeneID 5140) | SID315450473 | -1.31 | inactive
PDE3B (GeneID 5140) | SID315450473 | -1.07 | inactive
PDE3B (GeneID 5140) | SID315450473 | -0.49 | inactive
PGK2 (GeneID 5232) | SID315450549 | 2.09 | inactive
PGK2 (GeneID 5232) | SID315450549 | 0.37 | inactive
PGK2 (GeneID 5232) | SID315450549 | 1.8 | inactive
DUSP15 (GeneID 128853) | SID315461815 | 1.2 | inactive
DUSP15 (GeneID 128853) | SID315461815 | 2.11 | inactive
DUSP15 (GeneID 128853) | SID315461815 | 0.91 | inactive
DUSP15 (GeneID 128853) | SID315461815 | 0.68 | inactive
ST7 (GeneID 7982) | SID315452363 | -0.27 | inactive
ST7 (GeneID 7982) | SID315452363 | -1.46 | inactive
ST7 (GeneID 7982) | SID315452363 | -0.87 | inactive
ST7 (GeneID 7982) | SID315452363 | -0.49 | inactive
MRGPRF (GeneID 116535) | SID315463211 | -0.32 | inactive
MRGPRF (GeneID 116535) | SID315463211 | 0.01 | inactive
MRGPRF (GeneID 116535) | SID315463211 | 0.69 | inactive
MRGPRF (GeneID 116535) | SID315463211 | 0.14 | inactive
BEND5 (GeneID 79656) | SID315459358 | – | inactive
BEND5 (GeneID 79656) | SID315459358 | 0.2 | inactive
BEND5 (GeneID 79656) | SID315459358 | -0.07 | inactive
BEND5 (GeneID 79656) | SID315459358 | 0.52 | inactive
ATP6V1C1 (GeneID 528) | SID315447481 | -0.48 | inactive
ATP6V1C1 (GeneID 528) | SID315447481 | 0.87 | inactive
ATP6V1C1 (GeneID 528) | SID315447481 | -0.35 | inactive
ATP6V1C1 (GeneID 528) | SID315447481 | -0.85 | inactive
H2AX (GeneID 3014) | SID315449137 | -0.03 | inactive
H2AX (GeneID 3014) | SID315449137 | 0.9 | inactive
H2AX (GeneID 3014) | SID315449137 | 0.46 | inactive
H2AX (GeneID 3014) | SID315449137 | 1.2 | inactive
H1-10 (GeneID 8971) | SID315452951 | 2.28 | inactive
H1-10 (GeneID 8971) | SID315452951 | 2.44 | inactive
H1-10 (GeneID 8971) | SID315452951 | -1.63 | active
H1-10 (GeneID 8971) | SID315452951 | 1.38 | inactive
IBSP (GeneID 3381) | SID315449378 | 0.06 | inactive
IBSP (GeneID 3381) | SID315449378 | 1.04 | inactive
IBSP (GeneID 3381) | SID315449378 | -0.49 | inactive
IBSP (GeneID 3381) | SID315449378 | 0.94 | inactive
RB1 (GeneID 5925) | SID315451064 | -0.16 | inactive
RB1 (GeneID 5925) | SID315451064 | 1.34 | inactive
RB1 (GeneID 5925) | SID315451064 | 0.16 | inactive
RB1 (GeneID 5925) | SID315451064 | 1.08 | inactive
HPCAL1 (GeneID 3241) | SID315449304 | -1.45 | inactive
HPCAL1 (GeneID 3241) | SID315449304 | -0.92 | inactive
HPCAL1 (GeneID 3241) | SID315449304 | -0.37 | inactive
HPCAL1 (GeneID 3241) | SID315449304 | 0.24 | inactive
GRAMD4 (GeneID 23151) | SID315455026 | -0.54 | inactive
GRAMD4 (GeneID 23151) | SID315455026 | -0.35 | inactive
GRAMD4 (GeneID 23151) | SID315455026 | 0.24 | inactive
GRAMD4 (GeneID 23151) | SID315455026 | -0.29 | inactive
HOXA11 (GeneID 3207) | SID315449273 | 2.09 | inactive
HOXA11 (GeneID 3207) | SID315449273 | 0.9 | inactive
HOXA11 (GeneID 3207) | SID315449273 | 1.31 | inactive
HOXA11 (GeneID 3207) | SID315449273 | 1.92 | inactive
TRPM3 (GeneID 80036) | SID315459635 | 0.15 | inactive
TRPM3 (GeneID 80036) | SID315459635 | 3.25 | active
TRPM3 (GeneID 80036) | SID315459635 | 3.71 | active
TRPM3 (GeneID 80036) | SID315459635 | 1.06 | inactive
FDX1 (GeneID 2230) | SID315448662 | -1.92 | active
FDX1 (GeneID 2230) | SID315448662 | -1.55 | active
FDX1 (GeneID 2230) | SID315448662 | -1.82 | active
FDX1 (GeneID 2230) | SID315448662 | -1.4 | inactive
KIDINS220 (GeneID 57498) | SID315458420 | -0.78 | inactive
KIDINS220 (GeneID 57498) | SID315458420 | -1.33 | inactive
KIDINS220 (GeneID 57498) | SID315458420 | -0.97 | inactive
KIDINS220 (GeneID 57498) | SID315458420 | -0.79 | inactive
DEFB105A (GeneID 245908) | SID315463371 | 0.52 | inactive
DEFB105A (GeneID 245908) | SID315463371 | -0.65 | inactive
DEFB105A (GeneID 245908) | SID315463371 | -0.9 | inactive
DEFB105A (GeneID 245908) | SID315463371 | -0.43 | inactive
ADRB2 (GeneID 154) | SID315447222 | -0.05 | inactive
ADRB2 (GeneID 154) | SID315447222 | -0.88 | inactive
ADRB2 (GeneID 154) | SID315447222 | -1.38 | inactive
ADRB2 (GeneID 154) | SID315447222 | -1.56 | active
COX14 (GeneID 84987) | SID315460626 | -1.83 | active
COX14 (GeneID 84987) | SID315460626 | -0.6 | inactive
COX14 (GeneID 84987) | SID315460626 | -1.29 | inactive
COX14 (GeneID 84987) | SID315460626 | -1.07 | inactive
EXOSC1 (GeneID 51013) | SID315456402 | 1.49 | inactive
EXOSC1 (GeneID 51013) | SID315456402 | 0.53 | inactive
EXOSC1 (GeneID 51013) | SID315456402 | 0.48 | inactive
EXOSC1 (GeneID 51013) | SID315456402 | 2.03 | inactive
PRDM11 (GeneID 56981) | SID315458205 | -0.11 | inactive
PRDM11 (GeneID 56981) | SID315458205 | -0.28 | inactive
PRDM11 (GeneID 56981) | SID315458205 | 1.01 | inactive
ISG20L2 (GeneID 81875) | SID315459967 | 0.7 | inactive
ISG20L2 (GeneID 81875) | SID315459967 | 1.06 | inactive
ISG20L2 (GeneID 81875) | SID315459967 | 0.51 | inactive
ISG20L2 (GeneID 81875) | SID315459967 | 0.67 | inactive
EOLA1 (GeneID 91966) | SID315460968 | -0.62 | inactive
EOLA1 (GeneID 91966) | SID315460968 | 0.02 | inactive
EOLA1 (GeneID 91966) | SID315460968 | -0.2 | inactive
EOLA1 (GeneID 91966) | SID315460968 | -0.1 | inactive
KLRF1 (GeneID 51348) | SID315456663 | -1.24 | inactive
KLRF1 (GeneID 51348) | SID315456663 | -1.5 | inactive
KLRF1 (GeneID 51348) | SID315456663 | -0.51 | inactive
KLRF1 (GeneID 51348) | SID315456663 | -1.09 | inactive
AK5 (GeneID 26289) | SID315455765 | -0.61 | inactive
AK5 (GeneID 26289) | SID315455765 | 1.91 | inactive
AK5 (GeneID 26289) | SID315455765 | 2.46 | inactive
AK5 (GeneID 26289) | SID315455765 | 1.27 | inactive
SLC25A12 (GeneID 8604) | SID315452680 | -0.57 | inactive
SLC25A12 (GeneID 8604) | SID315452680 | -0.53 | inactive
SLC25A12 (GeneID 8604) | SID315452680 | -1.04 | inactive
SLC25A12 (GeneID 8604) | SID315452680 | -0.48 | inactive
CD276 (GeneID 80381) | SID315459775 | -1.64 | active
CD276 (GeneID 80381) | SID315459775 | -1.25 | inactive
CD276 (GeneID 80381) | SID315459775 | -1.14 | inactive
CD276 (GeneID 80381) | SID315459775 | -0.66 | inactive

Sorted by “TNF reporter robust z-score” (ascending): 6 of the entries above.
Target gene | PubChem SID | TNF reporter robust z-score | call
PGK2 (GeneID 5232) | SID315450549 | 0.37 | inactive
DUSP15 (GeneID 128853) | SID315461815 | 0.68 | inactive
DUSP15 (GeneID 128853) | SID315461815 | 0.91 | inactive
DUSP15 (GeneID 128853) | SID315461815 | 1.2 | inactive
PGK2 (GeneID 5232) | SID315450549 | 1.8 | inactive
DUSP15 (GeneID 128853) | SID315461815 | 2.11 | inactive
